This is an account of results in the supplement of paper PMC10849652.

Chains of the proteins cited; added tags and fusions are not shown. Lines headed by an entry give the natural chain unless they say otherwise; changes in a name come on top.
UniProt Q8TF40: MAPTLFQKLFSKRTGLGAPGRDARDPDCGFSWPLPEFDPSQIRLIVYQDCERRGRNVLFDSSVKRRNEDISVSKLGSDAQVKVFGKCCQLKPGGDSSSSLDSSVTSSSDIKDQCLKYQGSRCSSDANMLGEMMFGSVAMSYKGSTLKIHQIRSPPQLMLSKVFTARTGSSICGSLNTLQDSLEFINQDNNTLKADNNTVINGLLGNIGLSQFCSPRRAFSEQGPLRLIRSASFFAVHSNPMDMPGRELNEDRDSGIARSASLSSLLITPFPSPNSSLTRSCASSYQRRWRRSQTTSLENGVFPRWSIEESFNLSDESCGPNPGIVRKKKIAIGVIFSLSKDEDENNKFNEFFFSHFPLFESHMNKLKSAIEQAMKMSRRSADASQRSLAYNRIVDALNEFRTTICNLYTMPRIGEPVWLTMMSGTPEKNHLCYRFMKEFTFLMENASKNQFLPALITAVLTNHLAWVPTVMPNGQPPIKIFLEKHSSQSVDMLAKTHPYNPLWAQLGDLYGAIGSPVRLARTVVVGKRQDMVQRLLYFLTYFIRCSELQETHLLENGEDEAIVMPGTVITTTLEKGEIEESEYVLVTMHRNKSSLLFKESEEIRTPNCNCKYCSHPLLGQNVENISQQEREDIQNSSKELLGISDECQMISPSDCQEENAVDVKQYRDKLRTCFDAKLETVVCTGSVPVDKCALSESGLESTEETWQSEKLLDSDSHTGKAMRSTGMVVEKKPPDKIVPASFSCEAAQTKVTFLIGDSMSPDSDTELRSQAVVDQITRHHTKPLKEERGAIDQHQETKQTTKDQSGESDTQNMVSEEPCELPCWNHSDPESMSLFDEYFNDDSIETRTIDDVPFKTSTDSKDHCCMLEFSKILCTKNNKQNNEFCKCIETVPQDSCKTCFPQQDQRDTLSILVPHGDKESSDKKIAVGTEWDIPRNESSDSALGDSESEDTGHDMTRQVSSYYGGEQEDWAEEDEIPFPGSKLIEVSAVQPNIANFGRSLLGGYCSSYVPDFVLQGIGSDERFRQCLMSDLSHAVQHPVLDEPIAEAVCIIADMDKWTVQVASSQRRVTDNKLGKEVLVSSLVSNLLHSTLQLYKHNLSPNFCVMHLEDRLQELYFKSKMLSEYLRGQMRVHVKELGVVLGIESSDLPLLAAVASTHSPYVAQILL
UniProt Q9Y680: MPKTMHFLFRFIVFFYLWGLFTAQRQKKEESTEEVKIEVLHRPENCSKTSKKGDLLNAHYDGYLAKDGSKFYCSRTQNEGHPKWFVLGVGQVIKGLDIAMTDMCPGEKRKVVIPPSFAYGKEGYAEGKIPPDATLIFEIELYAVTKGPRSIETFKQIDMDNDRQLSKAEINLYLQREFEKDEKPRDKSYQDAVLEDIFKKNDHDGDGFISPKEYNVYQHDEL
UniProt Q5T0N5: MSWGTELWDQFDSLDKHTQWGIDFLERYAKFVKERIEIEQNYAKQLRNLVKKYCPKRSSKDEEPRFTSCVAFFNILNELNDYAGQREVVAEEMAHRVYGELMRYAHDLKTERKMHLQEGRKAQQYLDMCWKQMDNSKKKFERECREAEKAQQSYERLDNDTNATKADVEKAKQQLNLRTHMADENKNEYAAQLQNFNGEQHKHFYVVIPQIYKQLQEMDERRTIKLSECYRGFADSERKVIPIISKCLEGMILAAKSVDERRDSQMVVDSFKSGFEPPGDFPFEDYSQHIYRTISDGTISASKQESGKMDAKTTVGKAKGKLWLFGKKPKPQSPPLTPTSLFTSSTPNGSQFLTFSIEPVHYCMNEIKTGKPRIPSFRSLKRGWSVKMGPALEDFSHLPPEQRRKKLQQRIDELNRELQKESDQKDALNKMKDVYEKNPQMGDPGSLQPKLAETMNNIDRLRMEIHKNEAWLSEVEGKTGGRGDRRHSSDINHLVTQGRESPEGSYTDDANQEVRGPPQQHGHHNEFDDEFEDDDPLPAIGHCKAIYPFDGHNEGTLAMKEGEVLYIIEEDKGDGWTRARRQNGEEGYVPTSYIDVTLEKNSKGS
UniProt Q6ZV73: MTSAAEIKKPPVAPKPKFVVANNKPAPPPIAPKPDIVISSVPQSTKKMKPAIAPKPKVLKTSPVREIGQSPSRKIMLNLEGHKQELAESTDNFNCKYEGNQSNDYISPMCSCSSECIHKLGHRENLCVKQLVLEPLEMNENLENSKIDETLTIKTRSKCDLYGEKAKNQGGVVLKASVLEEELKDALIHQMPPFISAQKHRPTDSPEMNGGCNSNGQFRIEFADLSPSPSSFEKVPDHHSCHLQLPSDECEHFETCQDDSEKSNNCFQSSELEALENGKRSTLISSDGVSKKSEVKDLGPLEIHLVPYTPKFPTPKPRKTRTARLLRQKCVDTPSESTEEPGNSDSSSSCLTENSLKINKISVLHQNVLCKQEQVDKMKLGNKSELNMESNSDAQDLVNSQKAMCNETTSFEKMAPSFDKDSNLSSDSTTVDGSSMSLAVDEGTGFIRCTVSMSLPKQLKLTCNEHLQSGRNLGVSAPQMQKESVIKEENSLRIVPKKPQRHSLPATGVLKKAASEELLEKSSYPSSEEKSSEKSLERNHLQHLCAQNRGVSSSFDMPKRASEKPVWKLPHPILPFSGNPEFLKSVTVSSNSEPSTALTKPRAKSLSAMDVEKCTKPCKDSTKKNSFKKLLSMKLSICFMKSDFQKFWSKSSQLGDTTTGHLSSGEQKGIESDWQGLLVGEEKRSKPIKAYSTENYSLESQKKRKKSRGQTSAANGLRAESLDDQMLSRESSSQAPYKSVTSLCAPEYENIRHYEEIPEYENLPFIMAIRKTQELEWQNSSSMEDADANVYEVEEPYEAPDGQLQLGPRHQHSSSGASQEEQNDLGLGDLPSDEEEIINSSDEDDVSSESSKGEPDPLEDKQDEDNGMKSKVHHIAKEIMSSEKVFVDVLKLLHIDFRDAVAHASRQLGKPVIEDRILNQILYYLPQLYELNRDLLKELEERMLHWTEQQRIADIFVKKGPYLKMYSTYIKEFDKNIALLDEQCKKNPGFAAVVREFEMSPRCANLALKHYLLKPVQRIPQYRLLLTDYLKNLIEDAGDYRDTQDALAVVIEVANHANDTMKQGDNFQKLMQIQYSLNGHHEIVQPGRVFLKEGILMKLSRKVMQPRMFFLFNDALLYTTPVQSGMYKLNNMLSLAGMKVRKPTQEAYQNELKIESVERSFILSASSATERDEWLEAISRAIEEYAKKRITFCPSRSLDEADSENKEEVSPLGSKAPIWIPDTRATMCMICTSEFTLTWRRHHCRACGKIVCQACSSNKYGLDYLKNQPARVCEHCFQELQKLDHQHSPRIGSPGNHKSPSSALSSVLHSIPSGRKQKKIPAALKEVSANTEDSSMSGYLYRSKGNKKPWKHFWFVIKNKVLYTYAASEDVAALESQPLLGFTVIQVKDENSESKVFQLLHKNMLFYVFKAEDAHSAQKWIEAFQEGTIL
UniProt Q6PIW4: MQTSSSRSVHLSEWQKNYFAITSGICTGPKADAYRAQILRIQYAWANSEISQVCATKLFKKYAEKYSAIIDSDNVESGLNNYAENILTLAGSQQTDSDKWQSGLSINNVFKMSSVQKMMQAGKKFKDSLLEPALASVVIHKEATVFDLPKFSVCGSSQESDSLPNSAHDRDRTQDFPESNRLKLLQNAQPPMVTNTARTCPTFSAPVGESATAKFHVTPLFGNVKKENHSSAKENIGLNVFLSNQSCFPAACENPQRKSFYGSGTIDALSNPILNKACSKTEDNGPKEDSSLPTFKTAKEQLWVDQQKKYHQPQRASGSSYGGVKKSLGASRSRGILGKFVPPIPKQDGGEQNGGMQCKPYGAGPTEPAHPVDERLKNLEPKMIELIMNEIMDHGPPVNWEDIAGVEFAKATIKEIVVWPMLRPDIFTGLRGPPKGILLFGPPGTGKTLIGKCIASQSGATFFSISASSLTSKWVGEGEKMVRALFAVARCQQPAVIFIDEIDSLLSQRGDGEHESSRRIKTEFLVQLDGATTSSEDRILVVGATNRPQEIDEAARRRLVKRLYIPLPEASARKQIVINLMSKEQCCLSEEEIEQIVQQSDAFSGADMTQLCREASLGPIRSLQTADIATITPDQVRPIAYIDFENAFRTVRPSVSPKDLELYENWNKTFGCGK
UniProt Q7L8L6: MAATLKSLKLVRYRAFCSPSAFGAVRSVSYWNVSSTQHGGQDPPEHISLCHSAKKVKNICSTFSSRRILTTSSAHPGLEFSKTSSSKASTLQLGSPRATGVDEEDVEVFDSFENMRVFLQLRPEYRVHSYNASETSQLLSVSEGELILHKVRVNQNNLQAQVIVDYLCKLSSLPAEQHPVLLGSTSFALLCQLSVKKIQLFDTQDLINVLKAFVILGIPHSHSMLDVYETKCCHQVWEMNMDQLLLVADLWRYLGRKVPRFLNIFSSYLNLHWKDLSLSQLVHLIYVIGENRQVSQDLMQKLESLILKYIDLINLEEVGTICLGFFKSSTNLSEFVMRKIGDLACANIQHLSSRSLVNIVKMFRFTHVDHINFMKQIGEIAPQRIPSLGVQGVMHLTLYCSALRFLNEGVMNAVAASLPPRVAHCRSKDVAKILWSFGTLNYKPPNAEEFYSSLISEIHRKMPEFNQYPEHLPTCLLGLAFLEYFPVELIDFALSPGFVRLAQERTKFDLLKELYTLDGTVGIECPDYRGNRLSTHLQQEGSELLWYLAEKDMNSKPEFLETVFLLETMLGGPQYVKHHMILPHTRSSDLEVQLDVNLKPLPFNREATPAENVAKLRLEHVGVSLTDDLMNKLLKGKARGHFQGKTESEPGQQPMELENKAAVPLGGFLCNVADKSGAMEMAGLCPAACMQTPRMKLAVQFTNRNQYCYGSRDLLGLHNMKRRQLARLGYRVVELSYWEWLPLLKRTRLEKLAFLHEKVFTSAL
UniProt O95363: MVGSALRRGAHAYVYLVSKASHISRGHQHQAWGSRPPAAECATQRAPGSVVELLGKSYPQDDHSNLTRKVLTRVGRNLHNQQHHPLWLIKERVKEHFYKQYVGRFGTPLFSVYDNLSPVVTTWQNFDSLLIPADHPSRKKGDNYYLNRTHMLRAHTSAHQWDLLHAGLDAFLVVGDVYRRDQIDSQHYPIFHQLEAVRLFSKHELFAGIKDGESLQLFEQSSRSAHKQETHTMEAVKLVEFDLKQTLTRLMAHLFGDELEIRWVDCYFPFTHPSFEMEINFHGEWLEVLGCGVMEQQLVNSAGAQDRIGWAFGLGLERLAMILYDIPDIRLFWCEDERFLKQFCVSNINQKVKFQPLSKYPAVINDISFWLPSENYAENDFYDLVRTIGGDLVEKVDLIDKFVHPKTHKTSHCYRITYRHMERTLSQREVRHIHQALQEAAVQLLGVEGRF
UniProt P39748, whole entry, looked up: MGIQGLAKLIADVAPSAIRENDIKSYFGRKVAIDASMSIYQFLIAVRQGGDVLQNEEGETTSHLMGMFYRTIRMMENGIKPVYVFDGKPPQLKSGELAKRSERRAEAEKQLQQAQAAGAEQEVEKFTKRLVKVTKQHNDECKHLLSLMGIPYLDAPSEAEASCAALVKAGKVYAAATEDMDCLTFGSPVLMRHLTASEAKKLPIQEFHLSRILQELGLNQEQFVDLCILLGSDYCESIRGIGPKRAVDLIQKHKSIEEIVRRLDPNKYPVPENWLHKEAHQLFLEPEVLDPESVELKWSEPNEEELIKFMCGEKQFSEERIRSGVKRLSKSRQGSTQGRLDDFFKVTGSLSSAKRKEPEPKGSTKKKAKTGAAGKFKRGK
UniProt Q9UBU6: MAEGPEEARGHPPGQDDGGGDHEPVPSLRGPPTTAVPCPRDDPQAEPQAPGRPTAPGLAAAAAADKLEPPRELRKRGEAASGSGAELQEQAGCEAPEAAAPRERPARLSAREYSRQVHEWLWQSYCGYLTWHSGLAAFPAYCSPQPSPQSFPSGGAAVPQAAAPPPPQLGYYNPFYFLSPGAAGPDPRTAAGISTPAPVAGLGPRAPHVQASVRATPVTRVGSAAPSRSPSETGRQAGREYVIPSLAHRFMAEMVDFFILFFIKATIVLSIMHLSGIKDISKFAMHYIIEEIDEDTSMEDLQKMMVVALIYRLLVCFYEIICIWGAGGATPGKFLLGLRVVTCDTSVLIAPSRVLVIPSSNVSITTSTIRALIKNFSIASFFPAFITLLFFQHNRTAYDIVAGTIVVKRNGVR
UniProt Q8NEZ5: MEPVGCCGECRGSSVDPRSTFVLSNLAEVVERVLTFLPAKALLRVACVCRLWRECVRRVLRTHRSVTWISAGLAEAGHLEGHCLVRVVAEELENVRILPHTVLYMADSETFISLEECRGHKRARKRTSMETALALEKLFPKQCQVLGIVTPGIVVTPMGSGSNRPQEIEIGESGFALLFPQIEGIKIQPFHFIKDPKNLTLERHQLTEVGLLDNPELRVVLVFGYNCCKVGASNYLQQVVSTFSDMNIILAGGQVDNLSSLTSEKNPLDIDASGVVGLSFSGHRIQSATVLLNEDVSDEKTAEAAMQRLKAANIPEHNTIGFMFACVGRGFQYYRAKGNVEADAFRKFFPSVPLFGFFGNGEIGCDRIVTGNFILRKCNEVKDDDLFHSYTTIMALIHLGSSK

Assay in all cases: log2 fold change, soluble protein after heating vs DMSO (PISA); higher = thermal stabilisation; K562 lysate, 10 uM; active = over 0.2 and 3.5 SD of the protein, either way, in both replicates (recomputed)
Compound in test [1]: NCC(=O)Nc1ccc(-n2nc(C(F)(F)F)cc2-c2ccc3c(ccc4ccccc43)c2)cc1
An outline of the steps: (§1)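 Following dounce homogenisation of K562 pellets in PBS pH 7.4 with 1 mM MgCl2, crude extract at 1 mg/mL protein was incubated for 30 min with 10 μM compound. Aliquots were then heated for 3 min over 48°C-58°C and pooled, NP-40 was added to 0.5% at 4°C, and soluble protein was recovered as the supernatant at 21,000xg for 90 min. Channel-sum-equalised TMTpro 16plex LC-MS/MS quantified this protein. Each value, from duplicates, is a log-two fold change in thermal stability relative to solvent controls.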

Compound in a further test: O=C(CCCCCCC(=O)Nc1ccccc1)NO [vorinostat]
An outline of the steps: as §1

Compound in the next test: O=C(O)c1ccc2c(c1)nc(Nc1cccc(Cl)c1)c1ccncc12 [silmitasertib]
In short, it runs like this: as §1

Compound in test [2]: O=C1NC(=O)C(c2cnc3ccccn23)=C1c1cn2c3c(cc(F)cc13)CN(C(=O)N1CCCCC1)CC2
An outline of the steps:
as §1

Compound in another test: c1cn2cc(-c3ccc4cn[nH]c4c3)nc(Nc3ccc(N4CCOCC4)cc3)c2n1 [entospletinib]
An outline of the steps:
as §1

The list shows a part of the results.

FNIP1 isoform 3 (UniProt Q8TF40): the log2 fold change is inactive: 0.02 in test [1]; inactive: 0.008 with vorinostat; inactive: 0.015 in the test with silmitasertib; inactive: 0.001 in test [2]; inactive: -0.067 with entospletinib.

In the case of FDXR isoform 7 (UniProt P22570), the log2 fold change in test [1] was inactive: -0.001; with vorinostat, inactive: -0.24; in the test with silmitasertib, inactive: 0.069; in test [2] it was inactive: -0.046; with entospletinib, inactive: 0.046.

Turning to FASTKD1 (UniProt Q53R41), the log2 fold change in test [1] is inactive: 0.021; with vorinostat it was inactive: -0.293; with silmitasertib it was inactive: 0.06; in test [2], inactive: 0.028; with entospletinib, inactive: 0.002.

Turning to FKBP7 (UniProt Q9Y680), the log2 fold change is inactive: 0.012 in test [1]; inactive: 0.09 with vorinostat; inactive: 0.045 with silmitasertib; inactive: -0.014 in test [2]; inactive: -0.018 with entospletinib.

On to FNBP1L (UniProt Q5T0N5), for which the log2 fold change was inactive: 0.001 in test [1]; active: -0.373 with vorinostat; inactive: 0.102 with silmitasertib; inactive: -0.041 in test [2]; inactive: 0.017 with entospletinib.

Take FGD6 (UniProt Q6ZV73): the log2 fold change in test [1] was inactive: 0.268; in the test with vorinostat, inactive: -0.269; with silmitasertib, inactive: 0.02; in test [2], inactive: 0.717; with entospletinib, inactive: -0.14.

As to FN1 (UniProt P02751), the log2 fold change in test [1] is inactive: -0.021; with vorinostat it was inactive: 0.096; with silmitasertib, inactive: -0.045; in test [2], inactive: -0.02; with entospletinib it was inactive: 0.017.

For FEM1A (UniProt Q9BSK4), the log2 fold change in test [1] is inactive: 0.104; in the test with vorinostat it was inactive: 0.026; with silmitasertib it was inactive: 0.035; with entospletinib, inactive: -0.011.

On to FHAD1 isoform 3 (UniProt B1AJZ9), for which the log2 fold change in test [1] was inactive: 0.327; with vorinostat, inactive: 0.408; with silmitasertib, inactive: -0.107; with entospletinib it was inactive: 0.061.

As for FCSK (UniProt Q8N0W3), the log2 fold change in test [1] is inactive: -0.016; in the test with vorinostat, inactive: 0.056; with silmitasertib, inactive: 0.001; in test [2] it was inactive: 0.063; in the test with entospletinib, inactive: 0.026.

As to FMR1 (UniProt Q06787), the log2 fold change in test [1] is inactive: -0.031; in the test with vorinostat, inactive: 0.117; in the test with silmitasertib, inactive: 0.049; in test [2] it was inactive: 0.031; with entospletinib, inactive: -0.01.

On to FIGNL1 (UniProt Q6PIW4), for which the log2 fold change was inactive: -0.016 in test [1]; active: -0.484 in the test with vorinostat; inactive: 0.045 with silmitasertib; inactive: 0 in test [2]; inactive: 0.05 with entospletinib.

Turning to FASTKD5 (UniProt Q7L8L6), the log2 fold change in test [1] is inactive: 0.016; with vorinostat, active: -0.354; with silmitasertib, inactive: 0.053; in test [2], inactive: 0.022; in the test with entospletinib, inactive: -0.008.

Take FARS2 (UniProt O95363): the log2 fold change is inactive: 0.045 in test [1]; inactive: -0.321 in the test with vorinostat; inactive: -0.083 with silmitasertib; inactive: -0.007 in test [2]; inactive: -0.027 in the test with entospletinib.

As for FEN1 (UniProt P39748), the log2 fold change in test [1] is inactive: 0.032; in the test with vorinostat, inactive: 0.001; with silmitasertib it was inactive: -0.045; in test [2] it was inactive: 0.019; in the test with entospletinib it was inactive: 0.03.

Turning to FBXW8 (UniProt Q8N3Y1), the log2 fold change is inactive: 0.088 in test [1], inactive: 0.117 with vorinostat, inactive: -0.189 with silmitasertib and inactive: -0.132 in the test with entospletinib.

FLT4 (UniProt P35916): the log2 fold change in test [1] is inactive: -0.097; with vorinostat, active: -0.435; with silmitasertib it was inactive: 0.178; with entospletinib, inactive: 0.054.

For FKBPL (UniProt Q9UIM3), the log2 fold change is inactive: 0.034 in test [1]; inactive: -0.011 with vorinostat; inactive: -0.052 in the test with silmitasertib; inactive: -0.031 in test [2]; inactive: -0.024 with entospletinib.

In the case of FNBP1 (UniProt Q96RU3), the log2 fold change in test [1] is inactive: 0.049; with vorinostat it was inactive: -0.057; with silmitasertib, inactive: -0.006; in test [2], inactive: 0.001; in the test with entospletinib, inactive: -0.074.

For FBXO38 (UniProt Q6PIJ6), the log2 fold change was inactive: -0.029 in test [1]; inactive: -0.393 with vorinostat; inactive: 0.34 in the test with silmitasertib; inactive: -0.159 in test [2]; inactive: -0.173 with entospletinib.

Consider FAU (UniProt E9PR30), for which the log2 fold change in test [1] is inactive: 0.006; with vorinostat it was active: 0.212; with silmitasertib it was inactive: 0.047; in test [2], inactive: -0.006; in the test with entospletinib, inactive: 0.016.

As for FAM8A1 (UniProt Q9UBU6), the log2 fold change in test [1] is inactive: 0.081; in the test with vorinostat, inactive: 0.182; in the test with silmitasertib, inactive: -0.037; in test [2] it was inactive: 0.067; in the test with entospletinib, inactive: 0.125.

Regarding FCGR2A (UniProt P12318), the log2 fold change in test [1] is inactive: 0.039; in the test with vorinostat, inactive: 0.111; with silmitasertib it was inactive: 0; in test [2] it was inactive: -0.001; with entospletinib it was inactive: -0.022.

With FHL3 (UniProt Q13643), the log2 fold change in test [1] was inactive: -0.025; in the test with vorinostat it was inactive: 0.107; with silmitasertib, inactive: 0.028; in test [2] it was inactive: 0.005; with entospletinib, inactive: -0.034.

With FBXO22 (UniProt Q8NEZ5), the log2 fold change was inactive: 0.014 in test [1]; active: -0.477 with vorinostat; inactive: -0.022 in the test with silmitasertib; inactive: -0.018 in test [2]; inactive: 0.014 with entospletinib.
